For assay [1], the target named is FLAG-PABPC1 (cytosolic poly(A)-binding protein 1, wild type) (mouse) (UniProt P29341). Put plainly: co-IP; C2C12 cells infected with adenovirus for 4 days; 1-5 mg lysate on anti-Flag magnetic beads, 4°C, 6 hr; blot with anti-eIF4G1 antibody.
The target of assay [2] is GST-PABPC1 (mouse PABPC1, wild type) (mouse) (UniProt P29341). Description: pull-down; equimolar purified proteins mixed with or without RNase A in 1X PBS, 3 hr at 4°C; complexes isolated on Glutathione-Magnetic beads (2 hr, 4°C), SDS-PAGE, Coomassie stain; both purified.

Sequences of proteins named here, by UniProt entry; tags and fusion partners are left off. A change or cut given only in a name is not applied to a line headed by its entry.
UniProt P29341: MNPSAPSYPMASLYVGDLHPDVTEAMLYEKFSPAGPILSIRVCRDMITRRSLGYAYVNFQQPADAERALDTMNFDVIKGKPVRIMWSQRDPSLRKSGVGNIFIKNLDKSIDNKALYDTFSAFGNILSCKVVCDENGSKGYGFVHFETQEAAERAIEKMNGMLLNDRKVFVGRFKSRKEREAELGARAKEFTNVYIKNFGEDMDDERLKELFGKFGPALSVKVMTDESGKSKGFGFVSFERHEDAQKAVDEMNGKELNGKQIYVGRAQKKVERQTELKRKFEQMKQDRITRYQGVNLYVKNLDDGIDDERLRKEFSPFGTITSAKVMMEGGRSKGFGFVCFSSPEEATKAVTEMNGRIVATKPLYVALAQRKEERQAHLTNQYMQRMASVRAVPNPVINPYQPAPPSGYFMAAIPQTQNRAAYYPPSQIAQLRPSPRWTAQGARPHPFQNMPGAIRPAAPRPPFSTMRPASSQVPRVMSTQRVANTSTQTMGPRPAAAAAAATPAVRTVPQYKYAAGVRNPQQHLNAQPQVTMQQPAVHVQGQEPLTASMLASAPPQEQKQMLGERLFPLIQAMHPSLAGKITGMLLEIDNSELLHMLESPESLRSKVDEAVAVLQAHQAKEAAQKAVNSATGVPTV
UniProt Q6NZJ6: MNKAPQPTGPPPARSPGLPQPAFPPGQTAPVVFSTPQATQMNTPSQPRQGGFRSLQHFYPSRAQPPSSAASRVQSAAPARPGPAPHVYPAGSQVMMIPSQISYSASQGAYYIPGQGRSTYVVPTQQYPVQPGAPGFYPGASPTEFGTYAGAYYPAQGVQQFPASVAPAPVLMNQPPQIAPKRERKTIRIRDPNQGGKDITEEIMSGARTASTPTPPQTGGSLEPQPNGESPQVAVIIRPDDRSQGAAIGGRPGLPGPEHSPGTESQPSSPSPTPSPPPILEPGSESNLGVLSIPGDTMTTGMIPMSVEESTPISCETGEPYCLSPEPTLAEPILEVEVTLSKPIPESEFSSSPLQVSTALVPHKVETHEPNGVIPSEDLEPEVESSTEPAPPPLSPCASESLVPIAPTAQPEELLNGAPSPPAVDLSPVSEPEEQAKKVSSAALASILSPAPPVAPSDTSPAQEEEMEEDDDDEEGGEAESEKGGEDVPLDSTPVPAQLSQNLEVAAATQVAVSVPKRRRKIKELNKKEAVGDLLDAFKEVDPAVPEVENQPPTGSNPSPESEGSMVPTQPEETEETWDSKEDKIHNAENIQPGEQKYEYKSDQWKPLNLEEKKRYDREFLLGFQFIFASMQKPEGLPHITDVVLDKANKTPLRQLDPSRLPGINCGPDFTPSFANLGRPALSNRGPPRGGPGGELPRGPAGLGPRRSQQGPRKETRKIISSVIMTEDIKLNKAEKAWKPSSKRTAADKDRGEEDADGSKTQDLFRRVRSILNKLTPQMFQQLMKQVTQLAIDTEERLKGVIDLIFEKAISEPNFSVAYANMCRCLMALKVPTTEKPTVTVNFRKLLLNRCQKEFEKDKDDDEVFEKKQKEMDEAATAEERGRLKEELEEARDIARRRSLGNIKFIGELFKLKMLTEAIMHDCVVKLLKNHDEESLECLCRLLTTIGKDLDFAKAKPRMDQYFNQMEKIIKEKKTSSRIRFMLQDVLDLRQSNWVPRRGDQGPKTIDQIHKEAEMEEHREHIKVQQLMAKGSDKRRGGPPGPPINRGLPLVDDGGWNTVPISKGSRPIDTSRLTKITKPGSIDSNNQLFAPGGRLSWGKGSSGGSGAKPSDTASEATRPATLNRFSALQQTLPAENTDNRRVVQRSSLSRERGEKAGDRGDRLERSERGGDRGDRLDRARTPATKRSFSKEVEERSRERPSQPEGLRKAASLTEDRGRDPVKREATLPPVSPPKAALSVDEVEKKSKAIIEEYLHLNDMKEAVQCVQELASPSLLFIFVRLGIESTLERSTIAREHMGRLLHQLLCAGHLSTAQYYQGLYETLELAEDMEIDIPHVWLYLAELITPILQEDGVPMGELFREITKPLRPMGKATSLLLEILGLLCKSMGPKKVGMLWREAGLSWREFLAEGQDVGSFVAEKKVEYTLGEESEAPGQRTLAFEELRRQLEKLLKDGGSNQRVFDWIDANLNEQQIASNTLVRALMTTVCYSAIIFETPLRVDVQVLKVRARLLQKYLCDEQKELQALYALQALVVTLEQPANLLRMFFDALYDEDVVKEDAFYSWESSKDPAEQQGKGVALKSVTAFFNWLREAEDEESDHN

These are yes or no findings as the source states them, for the method shown. For some assays here: Binding seen in cells or lysates may run through a third protein. Some binding calls cover weakened binding; strength is not graded here.

For the substance “eIF4G1 (endogenous) (from UniProt Q6NZJ6 1-1600)”, in assay [1], the binding entry is “binds”.

“His-eIF4GI_((161-225 a.a)) (PABPC1-binding domain of eIF4G1) (from UniProt Q6NZJ6 161-225) (domain or fragment)”: in assay [2], the binding result is “binds”.

(Values after paper PMC5487213.)
